Experimental data published in publication PMC7866118.
These are yes or no findings as the source states them, for the method shown. One block for each binder: values may come before it.

Experiments:
[1] = biological target: recombinant human hemopexin (human) (UniProt P02790); experiment: SEC; SEC-HPLC, BioSep-SEC-s3000 column, mobile phase 1 mM potassium phosphate pH 7.4; heme complexes at L/P 0.5 and 2.0 compared with the apo-proteins and PEG-HPX as high molecular weight reference; detection at 280 and 413 nm; both purified
[2] = biological target: human plasma hemopexin (human) (UniProt P02790); experiment: as above

binding [1]: no binding
B1: recombinant human hemopexin (protein, UniProt P02790 24-462)
chain: TPLPPTSAHGNVAEGETKPDPDVTERCSDGWSFDATTLDDNGTMLFFKGEFVWKSHKWDRELISERWKNFPSPVDAAFRQGHNSVFLIKGDKVWVYPPEKKEKGYPKLLQDEFPGIPSPLDAAVECHRGECQAEGVLFFQGDREWFWDLATGTMKERSWPAVGNCSSALRWLGRYYCFQGNQFLRFDPVRGEVPPRYPRDVRDYFMPCPGRGHGHRNGTGHGNSTHHGPEYMRCSPHLVLSALTSDNHGATYAFSGTHYWRLDTSRDGWHSWPIAHQWPQGPSAVDAAFSWEEKLYLVQGTQVYVFLTKGGYTLVSGYPKRLEKEVGTPHGIILDSVDAAFICPGSSRLHIMAGRRLWWLDLKSGAQATWTELPWPHEKVDGALCMEKSLGPNSCSANGPGLYLIHGPNLYCYSDVEKLNAAKALPQPQNVTSLLGCTH

binding [2]: no binding
B2: human plasma hemopexin (protein, UniProt P02790 24-462)
chain: B1 chain
